# Results reported in PubChem BioAssay AID1508600 (Functional Genomics Laboratory (NCATS/FGL), 2020).
# Hit rate of the full screen: of about 53,000 sequences, about 3,700 (7%) were called active.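 Rule for the calls: active = gene knockdowns whose robust z-score for IL-1 alpha signal is at least 2 or at most -2, so actives lie on both sides; inactive = the rest.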 The list shows a part of the results.
# Assay: Components of the Cytosolic LPS Sensing Pathway: Gene Identification via Genome-wide siRNA Screen;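 note: robust z of the log signal after scaling to non-targeting control siRNA wells of the plate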
# Conditions: RAW264.7 macrophages, IL-1a HTRF, actives lie on both sides, screened at 100 nM (by protocol), cells primed 5 h with Pam3CSK4 first
# In short: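 Knockdown: 100 nM siRNA, 48h, RAW264.7. Stimulation: Pam3CSK4 5 h, then LipidA via TransIT-TKO 24 h. Output: supernatant IL-1a HTRF, negative-control-normalized, log robust z-score; viability by CellTiter-Glo.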
row,Sequence,z-score
1,CCAAUUACGAGACUCUCAUTT against Zfp786,inactive: -0.00661
2,GGAUGUCUCCAUGAAGGAATT against Ccnb2,inactive: -1.12
3,GGCCAGAAAACAUGCUUUATT against Pbx1,inactive: 0.252
4,GAUCUAAGAAUGCCUGUGGTT against Lyz1,inactive: -1.72
5,GGAAGUGGCUAUGACAGAGTT against Atp1a3,inactive: -1.71
6,GGCAAAAAAAGGCUUUAUUTT against Nde1,inactive: -1.04
7,GGAGAAGAAAGAAAAGCUUTT against Nusap1,inactive: -1.74
8,UUAUAGGCCUAUUGGUACATT against Olfr1208,inactive: -0.185
9,GGAAAUGGACUGUUUAGGCTT against Fgf15,inactive: 0.00302
10,GGAGACCAUCCAAUUAUGATT against Naa35,inactive: -1.28
11,GGAGUUCUUCUGGACCUCATT against Ccl22,inactive: -1.31
12,GGAAGAACGCGUAGAUAAGTT against Anks1,inactive: 1.58
13,GGAAAACACCUACCUGUGGTT against Slc25a3,inactive: -1.48
14,GCAAUACCUUCUGACACAGTT against Eral1,inactive: -0.0869
15,GCAUCAUGAUACGAAGCAGTT against Sfi1,inactive: -0.74
16,CCUCAUUCAAGAAACCUCATT against Comtd1,inactive: -1.13
17,GCAUCUUAACACAUGUAAATT against Zfp369,inactive: -0.834
18,GCUUUCCCUUAGGCACUUUTT against Anapc15,inactive: -0.33
19,GGUUUAUGAACUGACUUUGTT against Htt,inactive: 0.0107
20,GCUUGAUUUUUGACAGAGATT against Mdh1b,inactive: 1.48
21,GGUGCAAAGCUUGAAAAUGTT against Gpr150,inactive: -0.324
22,CCAAUUCACGUAUGACAAUTT against C3ar1,inactive: 0.3
23,GGCAGAAGACUUGGUGAUCTT against Ppm1m,inactive: 0.0651

row,Sequence,z-score
1,CGGAAUGAGUCUGCUGGUCTT against Mrgprg,inactive: 0.884
2,GGAGAUCGUCUCUCUCAUCTT against Pcf11,inactive: 0.792
3,GCUGAAACUAGACAUUAAGTT against Taf11,inactive: 0.0932
4,GGAGAAUCCAAAGUAGAUCTT against Mycbp,inactive: 0.492
5,CGUGUGAGGUUUGUGAAAGTT against Gzmf,inactive: -0.346
6,GGACCUCGAUGAAACCAUCTT against Stx6,inactive: -0.8
7,GGGAUAAAAUUCUACCUAATT against Htr2b,inactive: 0.724
8,GGAAGUGUGGUGAAACUGUTT against Clec4d,inactive: -0.702
9,GGGUUGCCCAGAAUGUAAATT against Cga,inactive: 0.38
10,GGACGAGAACGAUAAUUACTT against Dsc2,inactive: 0.335
11,GCAAUACGCAAACAUUCACTT against Mplkip,inactive: 0.525
12,GCAAUGUGAGAAUUUUAACTT against Psg26,active: 2.03
13,GGAGGAUGAAACAAGCCUUTT against Tnfsf11,inactive: 0.565
14,GGUACAAACACGAUCAAGGTT against Aox4,inactive: 0.654
15,GGGACAAAAUUAUUCCUCCTT against Med14,inactive: -0.977
16,GCUUUACUUCUUCCUCAUUTT against Olfr924,inactive: -0.994
17,GGUCUUGGGUAUUGUCGUGTT against Adgrg1,inactive: 0.754
18,GGAACAUUGAACUGAUUUGTT against Mapre1,inactive: 0.351
19,GCUUCCAUCUUUACUAAGATT against Cpt2,inactive: 0.872
20,GCUGAACCUUUGAAAUUUCTT against Scmh1,inactive: -1.3
21,GGCUCGGUUUCAGUGUACUTT against Zscan5b,inactive: 1.92
22,CCAUUUUAUGGGAGUAUUATT against Mms22l,inactive: -0.0345
23,GGCAGAAUUCUUCACCUCCTT against P4ha2,inactive: -1.05

# Taken from the listing for reference:
row,Sequence,z-score
11,GCAAUACGCAAACAUUCACTT against Mplkip,inactive: 0.525
12,GCAAUGUGAGAAUUUUAACTT against Psg26,active: 2.03
13,GGAGGAUGAAACAAGCCUUTT against Tnfsf11,inactive: 0.565
14,GGUACAAACACGAUCAAGGTT against Aox4,inactive: 0.654
15,GGGACAAAAUUAUUCCUCCTT against Med14,inactive: -0.977

# The list goes on:

row,Sequence,z-score
1,GCAAUGAAUUAGCCUUAAATT against Pkia,inactive: 1.42
2,GCAUUAGAUCAGACCAUUUTT against Ift46,inactive: 1.25
3,GGUCAACCUUCUGAAGCAGTT against Cfap100,inactive: -0.979
4,GCUUGAUAUAGUAUCCUUUTT against Prpf38b,active: -2.05
5,GGCCAGUGCCUUUGUGAUGTT against Mtnr1b,inactive: -1.28
6,GGUCAAAGGUGAAGAGAAATT against Chgb,inactive: 1.43
7,GCGGUUUUGUGUCAGGGACTT against 4833408A19Rik,inactive: -0.682
8,GGGAUUAUAGGAAAAUUCUTT against Nhlh1,inactive: 1.3
9,GUAAUUUAUCCUUUGCUGATT against Olfr378,inactive: 0.498
10,GCGCUCCUUCUGUGAUUCATT against Olfm4,inactive: -0.564
11,CGCAGAGUUAAUUUCUUGUTT against Rchy1,inactive: 0.995
12,GGUUGUUUAUGCUUUCUCUTT against Arhgap32,inactive: -0.766
13,GGCCUUUGUUCAGUCCUCCTT against Zscan5b,inactive: 0.483
14,CCGGGAGAUUACAAGUAGCTT against Barhl2,inactive: -1.16
15,GGUGGUUACUAGGAACAAGTT against Sgpp2,inactive: -1.13
16,GGAAAGCCUUGGCUACAUGTT against Olfr97,inactive: -0.211
17,GCGCAACCUGUGCUUUUCUTT against Hoxd10,inactive: 1.56
18,GCUUUAUAAGGCUAUUGGATT against Rcl1,inactive: -0.894
19,GUCACUUGGCUUCCAUUGATT against Olfr510,inactive: -1.46
20,CCAGCCGUAUUACAACUACTT against Bpnt1,active: 2.12
21,CCAAAGAUACCAUAGGAUUTT against Zc3h12a,inactive: 1.05
22,GGAAUCUAUCUGAUCACCATT against Olfr1537,inactive: -0.431
